Values quoted from earlier work in patent publication US7276520B2, “Bicyclic piperidine derivatives as melanocortin-4 receptor agonists” (Merck & Co., Inc., priority 2003, dated 2007).
Some results were stated once for a whole list of compounds, not compound by compound. Some ranges recur; such a range may be that of the whole group of compounds.

Conditions: drug compared to placebo

For `CCCCCCCCCCC[C@@H](C[C@@H]1OC(=O)[C@H]1CCCCCC)OC(=O)[C@H](CC(C)C)NC=O` [orlistat], the “weight loss, of body weight” value is given as 5%-10%.
